# The other results are listed elsewhere or left out.
# Tested on: T1, CTL2-GFP (C. trachomatis L2/434/Bu, GFP-expressing)
# T1 construct: L2/434/Bu, GFP-expressing
# Design: species or system HeLa; Intracellular C. trachomatis growth in HeLa cells, bulk GFP fluorescence relative to DMSO
# Settings: bulk GFP, single well; 28.5 h, 10 µM; inhibitor
row,Structure (SMILES),% of control remaining
1,Cc1oc(NC(=O)CN2CCN(c3ccc(F)cc3)CC2)c(C#N)c1C [CBK305907],117.414%
2,N#Cc1ccc(CNC2(Cc3cc(-c4ccc(F)cc4)on3)COC2)cc1 [CBK289653],146.729%
3,NC(=O)CN1C(=O)[C@@H]2CCCN2C(=O)c2ccccc21 [CBK283090],68.2354%
4,COCCNCc1ccc(OCc2ccccc2)cc1 [CBK270133C],147.105%
5,O=S(=O)(c1ccccc1Br)N1CCOCC1 [CBK062404],115.223%
6,O=c1[nH]c(=O)c2cc(S(=O)(=O)N3CCN(c4ccccn4)CC3)ccc2[nH]1 [CBK286379],98.8966%
7,Cc1ccc(S(=O)(=O)Nc2nc(C)c(C(=O)N3CCN(C)CC3)s2)cc1 [CBK045812],118.46%
8,CCc1ccccc1NC(=S)Nc1cccc(C)n1 [CBK288415],97.2331%
9,CCOc1ccc(Nc2nc(-c3ccc(F)cc3)c(CC(=O)O)s2)cc1 [CBK296064],125.843%
10,CCS(=O)(=O)NC1CCN(c2nc(C(F)(F)F)nc3ccsc23)CC1 [CBK304593],105.997%
11,N#CCCSc1ccn(C2CC(O)C(CO)O2)c(=O)n1 (stereo not drawn) [CBK201261],180.051%
12,O=S(=O)(NCc1ccccn1)c1ccc(Br)cc1Br [CBK262291],120.248%
13,CCc1nc2ccc(C(=O)N(C)CCN(C)C)cn2c1N(C)C(=O)Cc1ccccc1 [CBK146858],102.999%
14,c1cncc(CNCc2ccoc2)c1 [CBK001744C],128.961%
15,O=C(Nc1cccc2ncccc12)c1cccc(Oc2ccccc2)c1 [CBK296716],97.0224%
16,CC(C)(C)OC(=O)N1CCCCC1(C)c1nnc(-c2cccnc2)o1 (stereo not drawn) [CBK304714],122.583%
17,CCOc1cc(CNC2C3CC4CC(C3)CC2C4)cc(Cl)c1OCC(N)=O (stereo not drawn) [CBK265734C],244.643%
18,CC(C)Cc1ccc(S(=O)(=O)Nc2ccc(C(=O)O)cc2)cc1 [CBK297930],89.8865%
19,COC(=O)c1sccc1NC(=O)/C=C/c1ccccc1 [CBK057041],135.666%
20,C=CCNc1nccnc1-c1cnc(OC)nc1OC [CBK036922],119.079%
21,COc1ccc(C(=O)Nc2ccccc2O)cc1S(=O)(=O)N1CCCCC1 [CBK269665],120.085%

row,Structure (SMILES),% of control remaining
1,O=C(COc1ccc2ccccc2c1)Nc1ccc(N2CCN(Cc3ccccc3)CC2)cc1 [CBK266104],136.378%
2,c1cncc(OCCOc2nsnc2N2CCNCC2)c1 [CBK001825G],88.4858%
3,COc1ccc(-c2nnc(SCC(=O)c3ccc(F)cc3)n2C2CCCCC2C)cc1 (stereo not drawn) [CBK297494],157.468%
4,CN1CCN(S(=O)(=O)c2cccc3nsnc23)CC1 [CBK062428],109.354%
5,Nc1nc(C2COc3ccccc3O2)ncc1S(=O)(=O)c1ccc(Cl)cc1 (stereo not drawn) [CBK074808],95.4545%
6,Cc1csc(NC(=O)c2cc(S(=O)(=O)N3CCCC3)cn2C)n1 [CBK295617],131.687%
7,NNC(=O)COc1ccc2ccccc2c1 [CBK261208],116.319%
8,COc1ccc(Cn2nc(NC(=O)c3cn(C)c4ccccc34)c3ccccc32)cc1 [CBK048344],93.0173%
9,COc1ccccc1NC(=O)C1C2NC(=S)NC1(C)Oc1c(OC)cccc12 (stereo not drawn) [CBK269013],144.804%
10,O=C(NCC1CCCCC1)C1(Cc2ccc(-c3ccncc3)cc2)CCOCC1 [CBK285564],71.1432%
11,CSc1cc(-c2cccs2)[nH]c(=O)c1C#N [CBK006350],113.51%
12,COc1ccc(C(C)C)cc1-c1nccnc1NCC1COC(C)(C)O1 (stereo not drawn) [CBK036930],193.272%
13,COc1ccc(N(Cc2cccnc2)C(=O)c2ccc(-c3ccccc3)[nH]c2=O)cc1 [CBK283089],56.1227%
14,CCCNC(c1ccccc1)c1ccncc1 (stereo not drawn) [CBK028505],111.028%
15,O=C(NC1CCS(=O)(=O)C1)c1cnc2c(Cl)cccc2c1O (stereo not drawn) [CBK304644],125.365%
16,Cc1cc2c(s1)c1cnn(CC(=O)OC(C)C)c(=O)c1n2C [CBK284247],93.9993%
17,CN(Cc1cccc(C#N)c1)Cc1nc2c(cnn2C)c(=O)[nH]1 [CBK305973],126.342%
18,CC(C(=O)N[C@H]1C2CCCCC2[C@@H]1c1ccccc1)N1CCOCC1 (stereo partly drawn) [CBK282964],123.483%
19,CN(CC1(C)COC1)C(=O)C(c1ccc(F)cc1)N(C)C (stereo not drawn) [CBK281722],98.9553%
20,NC(=O)CCC(NC=O)C(=O)O (stereo not drawn) [CBK260967],116.035%
21,N#C/C(=C\c1c[nH]nc1-c1ccccc1)c1nc(-c2cccc([N+](=O)[O-])c2)cs1 [CBK267252],143.863%

# Rewritten bar-delimited: entries from further up
row | Structure (SMILES) | % of control remaining
8 | CCc1ccccc1NC(=S)Nc1cccc(C)n1 [CBK288415] | 97.2331%
9 | CCOc1ccc(Nc2nc(-c3ccc(F)cc3)c(CC(=O)O)s2)cc1 [CBK296064] | 125.843%
10 | CCS(=O)(=O)NC1CCN(c2nc(C(F)(F)F)nc3ccsc23)CC1 [CBK304593] | 105.997%
11 | N#CCCSc1ccn(C2CC(O)C(CO)O2)c(=O)n1 (stereo not drawn) [CBK201261] | 180.051%

# Later entries:

row,Structure (SMILES),% of control remaining
1,CC(C)CN1C(=O)COC[C@@H]1[C@H](O)c1ccc(NC(=O)C2CCCCC2)cc1 [CBK289687],144.146%
2,Cc1c(C(=O)C2=C(O)C(=O)N(Cc3cccnc3)C2c2ccncc2)cnn1-c1ccccc1 (stereo not drawn) [CBK233899],127.512%
3,CCN1CCN(C(=O)c2ccc3ccccc3n2)CC1 [CBK200249],104.227%
4,CCCCOc1ccc(Sc2nc(C)cc(C)n2)cc1 [CBK009219],107.121%
5,Cc1cc(CN2CCN(C(=O)NCCc3ccccn3)CC2)on1 [CBK305637],131.924%
6,CC(NC(=O)N1CCN(c2cc(C(F)(F)F)ccn2)CC1)c1ccccc1 (stereo not drawn) [CBK162350],142.364%
7,O=C(CSc1nnc(-c2ccccc2O)n1-c1ccccc1)Nc1ccc(N2CCOCC2)cc1 [CBK267874],104.908%
8,Oc1n[nH]c(-c2ccccc2Cl)c1Cc1c(Cl)cccc1Cl [CBK107935],125.392%
9,Cc1nc(CN2CCCC(NCc3ccc4ccccc4c3)C2)no1 (stereo not drawn) [CBK305160],86.8434%
10,c1cnc2[nH]c(C3CCCC3)c(CN3CCOCC3)c2c1 [CBK285337],129.693%
11,Cc1cc(N2CCCC2=O)cc(C)c1S(N)(=O)=O [CBK288458],167.656%
12,O=C(O)Cn1nnc(-c2ccncc2)n1 [CBK269884],116.183%
13,COc1ccc(C(=O)OC(C)(C)C)c(-c2cncc(N3CCCCC3CCO)n2)c1 (stereo not drawn) [CBK037786],170.033%
14,Cc1nnc(CSc2ncc(-c3ccc(Cl)cc3)n2Cc2ccccc2)o1 [CBK297154],125.901%
15,CC(=O)N(C)c1nc(-c2ccccc2C)ccc1C(=O)Nc1cc(C)nn1C [CBK106357],150.284%
16,COc1ccc(-n2ncc3c(N4CCN(C)CC4)ncnc32)cc1 [CBK265848],120.573%
17,COc1ccc(NC(=O)C(=O)NCc2ccncc2)cc1 [CBK287723],136.317%
18,Cn1nnnc1-c1cccc(NC(=O)c2ccc(Oc3ccccc3)cc2)c1 [CBK297872],45.4246%
19,Cc1nn(CC(=O)NC2CCCCC2)c(=O)c2cc3ccsc3n12 [CBK284080],106.924%
20,O=C(CSc1nnc(COc2ccccc2)o1)c1cccc([N+](=O)[O-])c1 [CBK267868],81.757%
21,COc1ccc(CCNC(=O)N2CCC(C(=O)O)CC2)cc1OC [CBK161404],133.225%

row,Structure (SMILES),% of control remaining
1,CN(C)CCN(Cc1ccccn1)c1ncccn1 [CBK020142],66.8053%
2,O=C(NCc1cccnc1)N1CCN(CCc2ccccc2)CC1 [CBK158906],118.395%
3,O=[N+]([O-])c1cccc(-c2ccc(OC3CCNCC3)cc2)c1 [CBK126465T],75.3216%
4,Cc1nc2c(c(CCC(=O)O)n1)CCCC2 [CBK023157],132.601%
5,CC1CCc2c(sc3ncnc(OCC(=O)N4CCNC4=O)c23)C1 (stereo not drawn) [CBK305775],114.862%
6,COc1ccc(-c2nc3c(c(=S)[nH]2)CCCC3)cc1 [CBK020440],65.9215%
7,CN(C)[C@@H]1CN(Cc2cccnc2)C[C@H]1c1cn(C)c2ccccc12 [CBK284875],88.91%
8,COc1cccc2cc(C(=O)NCCCN3CCN(C)CC3)oc12 [CBK149788],113.15%
9,Cc1n[nH]c(C)c1Sc1ccccc1/N=C/c1ccc(C(=O)O)cc1 [CBK262055],107.237%
10,Cc1oc(C2CC2)cc1C(=O)N1CCn2c(nnc2C2CC2)C1 [CBK283687],121.801%
11,Cc1cc(COc2cc(N3CCCN(Cc4ccc5c(c4)OCO5)CC3)ncn2)no1 [CBK083335T],164.076%
12,CCOC(=O)CCCNC(=O)N1CCN(Cc2ccccc2)CC1 [CBK155664],122.276%
13,CCOCCn1cnc2sc(C(=O)Nc3cccc(Cl)c3)c(C)c2c1=O [CBK071854],81.8928%
14,CCn1cc(-c2cncn2CCOc2ccc(C)cc2)cn1 [CBK281623],130.827%
15,CCN(CC)CCN(C(=O)Nc1ccc(C(N)=O)cc1)C(C)c1ccc(OC)c(OC)c1 (stereo not drawn) [CBK158962],88.3424%
16,COc1ccc(C)cc1S(=O)(=O)N(C)CC(=O)Nc1cccc(C(C)=O)c1 [CBK268753],142.443%
17,O=C(Cn1nnc(-c2ccccc2Cl)n1)N/N=C/c1cn(Cc2ccc(Cl)cc2)c2ccccc12 [CBK262333],85.6364%
18,COCC(=O)NCc1cc2n(n1)CCN(Cc1cccs1)C2 [CBK307085],124.74%
